This note sets out measurements from PMC7862700.

Chains of the proteins cited; added tags and fusions are not shown. Lines headed by an entry give the natural chain unless they say otherwise; changes in a name come on top.
UniProt O43186: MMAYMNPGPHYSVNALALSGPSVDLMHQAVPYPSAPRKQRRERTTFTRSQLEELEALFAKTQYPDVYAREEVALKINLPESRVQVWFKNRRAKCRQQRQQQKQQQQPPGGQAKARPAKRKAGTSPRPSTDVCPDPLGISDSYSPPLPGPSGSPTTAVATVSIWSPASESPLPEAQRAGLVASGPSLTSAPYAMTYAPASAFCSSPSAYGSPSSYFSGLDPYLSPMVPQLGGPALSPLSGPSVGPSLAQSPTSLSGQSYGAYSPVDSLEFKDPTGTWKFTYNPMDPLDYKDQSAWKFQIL

Only a part is listed here, and it is no random draw. At the low end of the ranking the order means little.

The test has as its target CRX (UniProt O43186). As to the kind of experiment: DAPPL (digital affinity profiling via proximity ligation, sequencing). Particulars: 10 mM Tris-HCl pH 7.5, 50 mM NaCl, 1 mM DTT, 4% glycerol, room temperature, 30 min; GST-TFs on glutathione beads, 16-mer random dsDNA library, 0.1% …; high values mean tight binding; double strand, one strand shown; scale: fold enrichment (6-mer frequency, TF over GST control).
Sequence TTGATC gave a binding signal of 1.71.

ATGCGC gave a binding signal of 1.14.

In turn, CGCGCC came in with a binding signal of 0.814.

The sequence CACTCC returned a binding signal of 0.935.

TAGATC came in with a binding signal of 1.51.

Take AAACGA: the binding signal came out at 0.953.

In turn, GTATAA displayed a binding signal of 1.41.

As to CTTTGT, the binding signal stood at 1.38.

With ACAATG, the binding signal came out at 0.808.

For CTGCGT, the binding signal was found to be 0.808.

Consider CAACCC, for which the binding signal amounted to 0.886.

In the case of ACACGC, the binding signal came out at 0.813.

On to TGATTT, for which the binding signal was 1.35.

With TTAGCA, the binding signal was 2.38.

Take TGGTGC: the binding signal came to 0.799.

For the sequence AAGGCT, the binding signal is 1.43.

CCATCC came in with a binding signal of 0.875.

Sequence CAAGAT displayed a binding signal of 1.23.

CCTCAG: the binding signal was determined as 1.15.

In the case of CATGAC, the binding signal stood at 0.894.

TGCACA yielded a binding signal of 0.835.

AATTAC: the binding signal turned out to be 1.74.

On to GTTCAA, for which the binding signal is 0.949.

On to GCGACC, for which the binding signal was 0.771.

ATCCAT showed a binding signal of 1.55.

ACCGCA registered a binding signal of 1.01.

With GCCGCT, the binding signal turned out to be 1.02.

In turn, TCATCC came in with a binding signal of 1.65.

For the sequence TTGTAA, the binding signal worked out at 1.62.

Sequence ACACCA came in with a binding signal of 0.78.

In turn, ACATCG displayed a binding signal of 0.837.

As to TAACGC, the binding signal worked out at 1.63.

In turn, CCTTCG had a binding signal of 1.28.

TACTCC displayed a binding signal of 1.26.

Take CCCCCC: the binding signal came out at 0.951.

ACTATA: the binding signal came out at 1.4.

Take ATTGCA: the binding signal was 1.11.

TGTCAT displayed a binding signal of 0.87.

AGTTTC came in with a binding signal of 0.945.

The sequence CCGAAT had a binding signal of 1.33.
